According to publication PMC8868058:
No constants are given. Whether binding was seen depends on the method and setting. In cells and extracts the contact can be indirect. Some results given as binding are weak or reduced against the parent protein; the word gives no strength.

Protein sequences, listed by entry. Tags and fused reporters are not part of them. Lines headed by an entry give the natural chain unless they say otherwise; changes in a name come on top.
UniProt P63104: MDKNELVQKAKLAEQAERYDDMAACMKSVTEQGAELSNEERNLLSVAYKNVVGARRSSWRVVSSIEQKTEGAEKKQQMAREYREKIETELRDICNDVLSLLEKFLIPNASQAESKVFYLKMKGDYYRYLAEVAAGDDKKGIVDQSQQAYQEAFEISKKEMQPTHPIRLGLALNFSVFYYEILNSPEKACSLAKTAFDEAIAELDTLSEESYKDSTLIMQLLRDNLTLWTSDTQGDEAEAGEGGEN

Molecular target: T1, heme oxygenase 1 (HO-1), endogenous (human (endogenous in PC3)) (UniProt P09601)
T1 sequence: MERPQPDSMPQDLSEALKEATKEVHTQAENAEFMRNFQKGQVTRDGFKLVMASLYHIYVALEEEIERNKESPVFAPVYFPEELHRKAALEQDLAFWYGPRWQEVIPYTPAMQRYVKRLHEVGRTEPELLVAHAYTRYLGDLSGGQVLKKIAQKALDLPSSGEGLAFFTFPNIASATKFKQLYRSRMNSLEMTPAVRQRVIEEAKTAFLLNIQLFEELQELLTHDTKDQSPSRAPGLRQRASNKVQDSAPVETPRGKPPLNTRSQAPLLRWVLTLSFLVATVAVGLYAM
Experiment: co-IP; PC3 lysates (cells treated with H2O2 or vehicle), 500 µg protein with 10 µg rabbit anti-human HO-1 antibody in RIPA buffer overnight at 4 °C, Protein A/G PLUS-Agarose; Western blot for 14-3-3ζ/δ; nonspecific IgG as control

binding: binds
Substance: 14-3-3 zeta delta-like protein (14-3-3ζ/δ) (from UniProt P63104 1-245)
